Reference: PubChem BioAssay (NCATS)
Inconclusive results, whose numbers are uncertain, are shown with a selection of clear calls. Where the call is inconclusive, the potency comes from a doubtful curve fit. Calls of active or inactive are those of the source. Calls follow the shape of the dose curve; as a rule, active = well fitted cell-killing curve with a large enough effect; inconclusive = small, poorly fitted or top-dose-only effect, or effect the other way; inactive = no such curve, though single readings can be large or run the other way.

What was measured:
[1] = Quantitative High-Throughput drug screen in 47 multiple myeloma cell lines against the NCATS MIPE library collection: L363_DSMZ cell viability assay (AID 1918984); conditions: L363 myeloma viability, CellTiter-Glo ATP luminescence, 48 h; viability (% of control): at 45.8 µM (top of the series); also: nearly all actives have a fitted effect of over 40% in size
Outline: (§1)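 Cells were exposed to library compounds for 48 hours, after which ATP was measured by CellTiter-Glo. Signal was taken as median relative luminescence units.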

[2] = Quantitative High-Throughput drug screen in 47 multiple myeloma cell lines against the NCATS MIPE library collection: OPM1_PLB cell viability assay (AID 1918989); also: nearly all actives have a fitted effect of over 40% in size;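 as to viability (% of control): 100% = DMSO-only wells and 0% = media-only wells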
Outline: as §1

[3] = Quantitative High-Throughput drug screen in 47 multiple myeloma cell lines against the NCATS MIPE library collection: SKMM1_PLB cell viability assay (AID 1919863); conditions: SKMM1 myeloma viability, CellTiter-Glo ATP, 48 h; viability: stronger effect = lower value; also: nearly all actives have a fitted effect of over 35% in size
Outline: as §1

[4] = Quantitative High-Throughput drug screen in 47 multiple myeloma cell lines against the NCATS MIPE library collection: U266_ATCC cell viability assay (AID 1919864); also: nearly all actives have a fitted effect of over 35% in size
Outline: as §1

[5] = Quantitative High-Throughput drug screen in 47 multiple myeloma cell lines against the NCATS MIPE library collection: XG6_PLB cell viability assay (AID 1919865); conditions: XG6 myeloma viability, CellTiter-Glo ATP luminescence, 48 h; viability (% of control): at 45.8 µM (top of the series); also: nearly all actives have a fitted effect of over 40% in size;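 as to viability (% of control): 100% = DMSO-only wells and 0% = media-only wells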
Outline: as §1

[6] = Quantitative High-Throughput drug screen in 47 multiple myeloma cell lines against the NCATS MIPE library collection: XG1_PLB cell viability assay (AID 1919866); also: nearly all actives have a fitted effect of over 35% in size
Outline: as §1

[7] = Quantitative High-Throughput drug screen in 47 multiple myeloma cell lines against the NCATS MIPE library collection: VP6_DJ cell viability assay (AID 1919867); conditions: ATP luminescence, 48 h; viability (% of DMSO): at 45.8 µM (top of the series); also: nearly all actives have a fitted effect of over 40% in size;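 as to viability (% of DMSO): 100% = DMSO-only wells and 0% = wells with media alone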
Outline: as §1

[8] = Quantitative High-Throughput drug screen in 47 multiple myeloma cell lines against the NCATS MIPE library collection: OCIMY5_PLB cell viability assay (AID 1918988); conditions: OCI-MY5 myeloma viability, ATP luminescence, 48 h; viability, % of control: at 45.8 µM (top of the series); also: nearly all actives have a fitted effect of over 65% in size;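 as to viability, % of control: 100% = DMSO-treated wells and 0% = wells with media alone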
Outline: as §1

[9] = Quantitative High-Throughput drug screen in 47 multiple myeloma cell lines against the NCATS MIPE library collection: OCIMY7_PLB cell viability assay (AID 1918987); conditions: OCI-MY7 myeloma viability, CellTiter-Glo ATP, 48 h; viability (% of DMSO): at 45.8 µM (top of the series); also: nearly all actives have a fitted effect of over 65% in size
Outline: as §1

[10] = Quantitative High-Throughput drug screen in 47 multiple myeloma cell lines against the NCATS MIPE library collection: KMS34_JCRB cell viability assay (AID 1918985); conditions: KMS34 myeloma viability, CellTiter-Glo ATP luminescence, 48 h; viability, percent of control: at 45.8 µM (top of the series); also: nearly all actives have a fitted effect of over 40% in size;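 as to viability, percent of control: 100% = DMSO-only wells and 0% = media-only wells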
Outline: as §1
Potency is read from the fitted curve at half-maximal effect.

CN(C)C1CCN(C(=O)c2ccc(NC(=O)Nc3nc(N4CCOCC4)nc(N4CCOCC4)n3)cc2)CC1
Potency [1]: inconclusive: 0.0264 µM [cytotoxic, full curve]
Potency [2]: inconclusive: 0.0053 µM [cytotoxic, full curve]
Potency [3]: inconclusive: 0.0235 µM [cytotoxic, full curve]
Potency [4]: inconclusive: 0.0743 µM [cytotoxic, partial curve, poor fit]
Potency [5]: inconclusive: 0.0118 µM [cytotoxic, full curve]
Potency [6]: inconclusive: 0.0372 µM [cytotoxic, full curve]
Potency [7]: inconclusive: 0.0093 µM [cytotoxic, full curve]

Nc1cc(C(Cl)=C(Cl)Cl)c(S(N)(=O)=O)cc1S(N)(=O)=O
Potency [1]: inconclusive: 16.6 µM [cytotoxic, partial curve, poor fit]
Potency [8]: inconclusive: 1.87 µM [cytotoxic, full curve, poor fit]
Potency [3]: inconclusive: 0.001 µM [cytotoxic]
Potency [5]: active: 11.8 µM
Potency [6]: inconclusive: 4.69 µM [cytotoxic, partial curve, poor fit]
Potency [7]: inconclusive: 9.35 µM [cytotoxic, full curve, poor fit]

O=C(NC(Cc1cc(=O)[nH]c2ccccc12)C(=O)O)c1ccc(Cl)cc1 (stereo not given)
Potency [1]: inconclusive: 0.0015 µM [rising, full curve, poor fit]
Potency [9]: inconclusive: 14.8 µM [cytotoxic, partial curve, poor fit]
viability [3]: inactive: 118%
Potency [4]: inconclusive: 0.0093 µM [rising, full curve, poor fit]
Potency [7]: inconclusive: 33.2 µM [cytotoxic, single point]

CC(C)[C@H](N)C(=O)OCCOCn1cnc2c(=O)[nH]c(N)nc21
Potency [10]: inconclusive: 0.0187 µM [cytotoxic, full curve, poor fit]
Potency [9]: inconclusive: 37.2 µM [cytotoxic, single point]
Potency [8]: inconclusive: 37.2 µM [cytotoxic, partial curve, poor fit]
Potency [2]: inactive
Potency [3]: inconclusive: 37.2 µM [cytotoxic, partial curve, poor fit]
Potency [5]: inconclusive: 37.2 µM [cytotoxic, single point]
Potency [6]: inconclusive: 23.5 µM [cytotoxic, partial curve]
Potency [7]: inconclusive: 13.2 µM [cytotoxic, partial curve, poor fit]

CC(C)C[C@H](NC(=O)[C@H](CCc1ccccc1)NC(=O)CN1CCOCC1)C(=O)N[C@@H](Cc1ccccc1)C(=O)N[C@@H](CC(C)C)C(=O)[C@@]1(C)CO1
Potency [1]: active: 0.001 µM
Potency [3]: active: 0.0209 µM

CCOC(=O)c1c(CSc2ccccc2)n(C)c2cc(Br)c(O)c(CN(C)C)c12
Potency [1]: active: 20.9 µM
Potency [9]: inconclusive: 33.2 µM [cytotoxic, partial curve, poor fit]
Potency [3]: active: 6.62 µM
Potency [4]: inconclusive: 3.32 µM [cytotoxic, full curve, poor fit]
Potency [6]: inconclusive: 20.9 µM [cytotoxic, partial curve, poor fit]
Potency [7]: inconclusive: 18.7 µM [cytotoxic, partial curve, poor fit]

O=C(NC1CC1)c1cccc(-c2ccc3c(NC(=O)C4CC4)n[nH]c3c2)c1
Potency [1]: inactive
Potency [8]: active: 0.332 µM
Potency [3]: inconclusive: 7.43 µM [cytotoxic, full curve]
Potency [4]: inconclusive: 1.18 µM [cytotoxic, full curve]
Potency [7]: active: 9.35 µM

CCCCC[C@H](O)C=C[C@H]1[C@H](O)CC(=O)[C@H]1CC=CCCCC(=O)O
Potency [1]: inconclusive: 0.187 µM [cytotoxic, full curve, poor fit]
Potency [9]: inconclusive: 10.5 µM [cytotoxic, partial curve, poor fit]
viability [3]: inconclusive: 86.6% [cytotoxic]
Potency [6]: inconclusive: 20.9 µM [cytotoxic, partial curve, poor fit]
Potency [7]: inconclusive: 10.5 µM [cytotoxic, partial curve, poor fit]

NC1=N[C@@]2(c3cc(NC(=O)c4ccc(F)cn4)ccc3F)COC[C@@H]2CS1
Potency [10]: inconclusive: 26.4 µM [cytotoxic, single point]
Potency [9]: inconclusive: 7.43 µM [cytotoxic, partial curve, poor fit]
Potency [8]: active: 23.5 µM
Potency [2]: active: 16.6 µM
Potency [4]: inconclusive: 33.2 µM [cytotoxic, single point]
Potency [6]: inconclusive: 14.8 µM [cytotoxic, partial curve]

NC(=O)c1ccc2[nH]ccc2c1
Potency [10]: inactive
Potency [9]: inconclusive: 2.96 µM [cytotoxic, full curve, poor fit]
Potency [8]: inconclusive: 1.32 µM [cytotoxic, full curve, poor fit]
Potency [2]: inconclusive: 20.9 µM [cytotoxic, partial curve, poor fit]
Potency [3]: inconclusive: 2.64 µM [cytotoxic, full curve, poor fit]
Potency [4]: inactive
Potency [5]: inactive
Potency [6]: inconclusive: 20.9 µM [cytotoxic, single point]
Potency [7]: inactive

CO[C@H]1C[C@@H]2CC[C@@H](C)[C@@](O)(O2)C(=O)C(=O)N2CCCC[C@@H]2C(=O)O[C@H]([C@@H](C)C[C@@H]2CC[C@H](O)[C@H](OC)C2)CC(=O)[C@H](C)C=C(C)[C@@H](O)[C@@H](OC)C(=O)[C@H](C)C[C@H](C)C=CC=CC=C1C
Potency [1]: inactive
Potency [8]: inconclusive: 23.5 µM [cytotoxic, single point]
Potency [2]: inconclusive: 14.8 µM [cytotoxic, partial curve]
viability [3]: inactive: 82.9%
Potency [4]: inconclusive: 23.5 µM [cytotoxic, single point]
Potency [6]: inconclusive: 26.4 µM [cytotoxic, single point]
Potency [7]: inconclusive: 16.6 µM [cytotoxic, partial curve, poor fit]

CN(C)S(=O)(=O)c1ccc2c(c1)C(=Cc1cc3c([nH]1)CCCC3)C(=O)N2
Potency [1]: inconclusive: 6.62 µM [cytotoxic, partial curve, poor fit]
Potency [2]: inconclusive: 11.8 µM [cytotoxic, partial curve, poor fit]
Potency [3]: inconclusive: 5.9 µM [cytotoxic, full curve, poor fit]
Potency [4]: inconclusive: 26.4 µM [cytotoxic, single point]
Potency [5]: inconclusive: 0.296 µM [cytotoxic, full curve]
Potency [6]: inconclusive: 0.833 µM [cytotoxic, full curve]

COCCOc1nc(-c2ccc(Cl)c(Cl)c2)n(-c2ccc(NC(=O)CCl)cc2)n1
Potency [1]: active: 8.33 µM
Potency [8]: active: 20.9 µM
Potency [3]: inconclusive: 37.2 µM [cytotoxic, single point]

CCCc1cc(=O)[nH]c(=S)[nH]1
Potency [1]: inconclusive: 0.0264 µM [rising, full curve, poor fit]
Potency [9]: inactive
viability [3]: inactive: 115%
Potency [4]: inconclusive: 0.187 µM [rising, full curve, poor fit]
Potency [5]: inconclusive: 11.8 µM [rising, single point]
Potency [7]: inactive

CC1(C)Cc2c(-c3ccccc3)c(-c3ccc(Cl)cc3)c(CC(=O)O)n2C1
Potency [10]: inconclusive: 29.6 µM [cytotoxic, partial curve]
Potency [9]: inconclusive: 7.43 µM [cytotoxic, partial curve, poor fit]
Potency [8]: inconclusive: 20.9 µM [cytotoxic, partial curve, poor fit]
Potency [2]: inconclusive: 29.6 µM [cytotoxic, single point]
Potency [4]: active: 18.7 µM
Potency [5]: active: 18.7 µM

O=C(C=Cc1cccnc1)NCCCCC1CCN(C(=O)c2ccccc2)CC1
Potency [1]: inconclusive: 29.6 µM [cytotoxic, single point]
Potency [9]: active: 0.0105 µM
Potency [5]: active: 0.0743 µM

CC(C)(C)NC(=O)Nc1cccc(Nc2ncc(F)c(NC(C)(C)CO)n2)c1
Potency [1]: inconclusive: 33.2 µM [cytotoxic, single point]
Potency [3]: inconclusive: 0.0012 µM [rising, full curve, poor fit]
Potency [4]: inactive
Potency [7]: inconclusive: 0.105 µM [cytotoxic, full curve, poor fit]

Nc1nc2c(ncn2COCCO)c(=O)[nH]1
Potency [10]: inactive
Potency [9]: inconclusive: 2.35 µM [cytotoxic, partial curve, poor fit]
Potency [8]: inactive
Potency [2]: inactive
viability [3]: inactive: 125%
Potency [5]: inactive
Potency [7]: inactive

CN[C@@H](C)C(=O)N[C@H]1CCCC[C@H]2CC[C@@H](C(=O)N[C@@H](c3ccccc3)c3cn(CCCCc4ccc(CCCCn5cc([C@@H](NC(=O)[C@@H]6CC[C@@H]7CCCC[C@H](NC(=O)[C@H](C)NC)C(=O)N76)c6ccccc6)nn5)cc4)nn3)N2C1=O
Potency [1]: inconclusive: 18.7 µM [cytotoxic, partial curve]
Potency [4]: inconclusive: 37.2 µM [cytotoxic, single point]

CCNc1cc(NC2CCC(O)CC2)nc(Nc2ccc3c(ccn3Cc3ccccc3)c2)n1 (stereo not given)
Potency [1]: inconclusive: 8.33 µM [cytotoxic, partial curve, poor fit]
Potency [4]: inconclusive: 26.4 µM [cytotoxic, single point]

CC(C)=CC[C@@H](O)C1=CC(=O)c2c(O)ccc(O)c2C1=O
Potency [1]: inconclusive: 7.43 µM [cytotoxic, partial curve, poor fit]
Potency [9]: inconclusive: 1.66 µM [cytotoxic, full curve, poor fit]
Potency [5]: active: 0.469 µM
Potency [6]: active: 0.418 µM
Potency [7]: active: 0.833 µM

CCCOc1ccc2nc(NC(=O)OC)[nH]c2c1
viability (% of control) [1]: inconclusive: 19.8% [cytotoxic]
Potency [9]: inconclusive: 2.64 µM [cytotoxic, partial curve, poor fit]
Potency [4]: inconclusive: 0.118 µM [cytotoxic, full curve, poor fit]
Potency [5]: inconclusive: 0.0053 µM [cytotoxic, full curve]
Potency [7]: inconclusive: 0.0264 µM [cytotoxic, full curve]
